Data on two sequences can be found in PMC11772365.

Construct, isoform or probe ends are uncertain for at least one entry. No signal at the amounts used counts as a negative. For part of these data: At least one verdict rests on a figure or table, not on a statement of the authors.

For one series, the system named is MBP. Kind of series: EMSA. The conditions noted are these: MBP negative control; Beyotime chemiluminescent EMSA kit, biotin probes; pH and temperature not stated; recombinant protein; protein details: MBP; label: ….
Series [1] deals with MBP-AaMYC3 (Artemisia annua). Nature of the series: EMSA. The note with it: Beyotime chemiluminescent EMSA kit, biotin probes; pH and temperature not stated; recombinant protein; protein details: MBP; label: biotin.

For “ACTAGCAAATAAGATAATGCCACGTGTATGAAACAGCCATGTAGGT (double strand) [pAaHD1-Gbox]”, the figures for the binding result (with MBP; in series [1]) were “no binding” and “binds”, respectively.
Turning to “ACTAGCAAATAAGATAATGCCTTTTGTATGAAACAGCCATGTAGGT (double strand) [pAaHD1-mGbox]”, the binding result in series [1] was “no binding”.
